Reference: the supplement of paper PMC10849652
This is one part of the list.

Amino acid sequences for entries named in this document (tags omitted). A change or cut given only in a name is not applied to a line headed by its entry.
UniProt P25788: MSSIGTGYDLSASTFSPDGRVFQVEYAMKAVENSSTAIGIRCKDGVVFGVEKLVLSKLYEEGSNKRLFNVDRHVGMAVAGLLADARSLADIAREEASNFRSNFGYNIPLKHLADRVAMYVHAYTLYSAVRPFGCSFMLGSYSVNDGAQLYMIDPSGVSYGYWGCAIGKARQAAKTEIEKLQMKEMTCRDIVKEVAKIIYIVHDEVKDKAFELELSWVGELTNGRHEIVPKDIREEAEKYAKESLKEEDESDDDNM
UniProt Q969U7: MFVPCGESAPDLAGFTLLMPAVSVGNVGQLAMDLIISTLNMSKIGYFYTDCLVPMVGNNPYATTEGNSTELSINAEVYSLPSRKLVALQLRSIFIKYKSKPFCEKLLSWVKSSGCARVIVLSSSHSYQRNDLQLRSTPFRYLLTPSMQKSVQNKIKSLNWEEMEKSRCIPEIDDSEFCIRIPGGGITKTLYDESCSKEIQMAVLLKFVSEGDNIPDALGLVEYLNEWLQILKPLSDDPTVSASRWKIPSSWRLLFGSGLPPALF
UniProt P62191: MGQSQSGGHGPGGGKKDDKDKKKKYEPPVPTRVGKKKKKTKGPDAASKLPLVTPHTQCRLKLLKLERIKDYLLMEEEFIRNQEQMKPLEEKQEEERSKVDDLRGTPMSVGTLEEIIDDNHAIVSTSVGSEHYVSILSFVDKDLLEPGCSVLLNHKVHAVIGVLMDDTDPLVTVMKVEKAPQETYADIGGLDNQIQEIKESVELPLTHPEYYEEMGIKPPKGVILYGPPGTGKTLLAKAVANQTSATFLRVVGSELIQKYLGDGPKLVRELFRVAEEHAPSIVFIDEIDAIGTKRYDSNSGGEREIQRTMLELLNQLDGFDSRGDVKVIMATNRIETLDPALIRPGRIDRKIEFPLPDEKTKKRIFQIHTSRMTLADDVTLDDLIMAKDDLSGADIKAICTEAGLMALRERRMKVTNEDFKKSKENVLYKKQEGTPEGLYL
UniProt Q9BT73: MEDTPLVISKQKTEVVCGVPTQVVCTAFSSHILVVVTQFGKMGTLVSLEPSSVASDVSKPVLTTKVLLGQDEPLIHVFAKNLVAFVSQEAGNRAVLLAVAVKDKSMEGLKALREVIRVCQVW
UniProt Q9NR77: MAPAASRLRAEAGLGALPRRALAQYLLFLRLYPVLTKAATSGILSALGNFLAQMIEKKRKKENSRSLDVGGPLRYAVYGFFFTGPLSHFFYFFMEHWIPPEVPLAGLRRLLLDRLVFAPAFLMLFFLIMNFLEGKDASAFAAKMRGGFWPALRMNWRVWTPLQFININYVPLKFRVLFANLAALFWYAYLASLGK
UniProt P62195, whole entry, looked up: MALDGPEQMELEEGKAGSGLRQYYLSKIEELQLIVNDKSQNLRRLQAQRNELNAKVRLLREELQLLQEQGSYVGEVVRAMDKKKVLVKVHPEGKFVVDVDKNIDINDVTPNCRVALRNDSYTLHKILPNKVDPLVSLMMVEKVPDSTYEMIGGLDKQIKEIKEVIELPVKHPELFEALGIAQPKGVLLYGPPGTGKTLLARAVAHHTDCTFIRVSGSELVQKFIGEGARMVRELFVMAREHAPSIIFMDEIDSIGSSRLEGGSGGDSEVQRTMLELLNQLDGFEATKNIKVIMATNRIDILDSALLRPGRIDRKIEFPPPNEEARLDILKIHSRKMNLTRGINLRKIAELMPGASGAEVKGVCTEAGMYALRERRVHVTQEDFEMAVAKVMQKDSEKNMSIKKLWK
UniProt P60900, whole entry, looked up: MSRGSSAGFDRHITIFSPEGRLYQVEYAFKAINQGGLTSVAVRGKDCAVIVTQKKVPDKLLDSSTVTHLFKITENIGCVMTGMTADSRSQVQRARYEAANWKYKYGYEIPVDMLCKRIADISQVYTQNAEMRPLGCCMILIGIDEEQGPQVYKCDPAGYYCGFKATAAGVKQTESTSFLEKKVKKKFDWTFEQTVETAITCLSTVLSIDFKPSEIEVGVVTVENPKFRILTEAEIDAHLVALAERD
UniProt Q05397, whole entry, looked up: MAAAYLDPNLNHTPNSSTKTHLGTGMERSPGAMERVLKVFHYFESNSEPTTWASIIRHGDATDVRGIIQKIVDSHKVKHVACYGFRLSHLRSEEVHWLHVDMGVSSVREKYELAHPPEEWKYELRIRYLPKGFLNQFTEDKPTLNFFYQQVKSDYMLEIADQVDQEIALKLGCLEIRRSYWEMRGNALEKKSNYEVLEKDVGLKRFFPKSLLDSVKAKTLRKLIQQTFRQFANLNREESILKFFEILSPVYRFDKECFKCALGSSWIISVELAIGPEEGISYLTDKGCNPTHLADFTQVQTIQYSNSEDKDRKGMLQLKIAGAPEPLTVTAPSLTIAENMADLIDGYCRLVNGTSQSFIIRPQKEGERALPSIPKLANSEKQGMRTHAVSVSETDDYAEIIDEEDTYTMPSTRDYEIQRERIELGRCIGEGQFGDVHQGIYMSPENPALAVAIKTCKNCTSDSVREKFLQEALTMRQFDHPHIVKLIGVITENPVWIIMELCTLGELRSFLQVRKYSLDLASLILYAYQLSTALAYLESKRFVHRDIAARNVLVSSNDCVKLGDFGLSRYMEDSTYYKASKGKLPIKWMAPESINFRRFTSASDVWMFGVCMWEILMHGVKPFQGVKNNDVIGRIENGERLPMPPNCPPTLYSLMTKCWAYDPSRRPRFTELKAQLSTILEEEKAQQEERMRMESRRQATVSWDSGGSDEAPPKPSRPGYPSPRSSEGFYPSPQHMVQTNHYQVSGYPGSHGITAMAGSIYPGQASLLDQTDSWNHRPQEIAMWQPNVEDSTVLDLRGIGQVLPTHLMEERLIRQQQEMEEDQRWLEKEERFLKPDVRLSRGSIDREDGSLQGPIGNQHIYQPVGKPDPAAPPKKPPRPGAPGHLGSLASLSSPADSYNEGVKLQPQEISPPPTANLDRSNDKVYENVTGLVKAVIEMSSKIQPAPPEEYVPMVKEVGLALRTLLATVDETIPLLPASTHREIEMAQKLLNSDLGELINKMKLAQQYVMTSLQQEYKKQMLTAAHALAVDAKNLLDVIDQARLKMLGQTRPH
UniProt Q96C36: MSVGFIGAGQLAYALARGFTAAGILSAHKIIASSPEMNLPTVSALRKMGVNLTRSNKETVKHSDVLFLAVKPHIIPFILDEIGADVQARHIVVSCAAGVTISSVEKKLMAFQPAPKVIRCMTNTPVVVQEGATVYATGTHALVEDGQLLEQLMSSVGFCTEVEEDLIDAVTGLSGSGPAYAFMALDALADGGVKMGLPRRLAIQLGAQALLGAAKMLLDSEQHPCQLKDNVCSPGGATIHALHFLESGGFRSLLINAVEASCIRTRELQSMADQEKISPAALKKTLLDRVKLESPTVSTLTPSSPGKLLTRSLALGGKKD
UniProt O00391: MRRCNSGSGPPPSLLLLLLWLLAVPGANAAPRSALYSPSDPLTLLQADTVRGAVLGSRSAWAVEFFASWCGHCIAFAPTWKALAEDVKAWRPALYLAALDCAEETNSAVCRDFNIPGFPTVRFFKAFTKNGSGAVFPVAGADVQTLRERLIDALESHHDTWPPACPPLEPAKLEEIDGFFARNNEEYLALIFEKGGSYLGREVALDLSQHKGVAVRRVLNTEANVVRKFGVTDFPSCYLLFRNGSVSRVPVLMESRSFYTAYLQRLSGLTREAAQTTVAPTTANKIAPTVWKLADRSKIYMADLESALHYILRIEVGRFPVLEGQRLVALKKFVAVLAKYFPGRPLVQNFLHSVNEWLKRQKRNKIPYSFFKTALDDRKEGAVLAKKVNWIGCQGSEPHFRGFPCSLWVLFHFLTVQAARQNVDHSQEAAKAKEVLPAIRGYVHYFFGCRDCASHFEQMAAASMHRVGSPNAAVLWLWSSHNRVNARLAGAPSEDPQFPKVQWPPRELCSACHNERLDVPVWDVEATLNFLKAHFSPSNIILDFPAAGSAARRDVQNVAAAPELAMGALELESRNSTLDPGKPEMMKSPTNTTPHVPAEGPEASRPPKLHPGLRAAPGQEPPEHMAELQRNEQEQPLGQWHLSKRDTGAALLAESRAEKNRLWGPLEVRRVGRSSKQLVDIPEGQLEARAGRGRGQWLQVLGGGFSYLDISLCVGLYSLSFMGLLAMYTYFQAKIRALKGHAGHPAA
UniProt P18433: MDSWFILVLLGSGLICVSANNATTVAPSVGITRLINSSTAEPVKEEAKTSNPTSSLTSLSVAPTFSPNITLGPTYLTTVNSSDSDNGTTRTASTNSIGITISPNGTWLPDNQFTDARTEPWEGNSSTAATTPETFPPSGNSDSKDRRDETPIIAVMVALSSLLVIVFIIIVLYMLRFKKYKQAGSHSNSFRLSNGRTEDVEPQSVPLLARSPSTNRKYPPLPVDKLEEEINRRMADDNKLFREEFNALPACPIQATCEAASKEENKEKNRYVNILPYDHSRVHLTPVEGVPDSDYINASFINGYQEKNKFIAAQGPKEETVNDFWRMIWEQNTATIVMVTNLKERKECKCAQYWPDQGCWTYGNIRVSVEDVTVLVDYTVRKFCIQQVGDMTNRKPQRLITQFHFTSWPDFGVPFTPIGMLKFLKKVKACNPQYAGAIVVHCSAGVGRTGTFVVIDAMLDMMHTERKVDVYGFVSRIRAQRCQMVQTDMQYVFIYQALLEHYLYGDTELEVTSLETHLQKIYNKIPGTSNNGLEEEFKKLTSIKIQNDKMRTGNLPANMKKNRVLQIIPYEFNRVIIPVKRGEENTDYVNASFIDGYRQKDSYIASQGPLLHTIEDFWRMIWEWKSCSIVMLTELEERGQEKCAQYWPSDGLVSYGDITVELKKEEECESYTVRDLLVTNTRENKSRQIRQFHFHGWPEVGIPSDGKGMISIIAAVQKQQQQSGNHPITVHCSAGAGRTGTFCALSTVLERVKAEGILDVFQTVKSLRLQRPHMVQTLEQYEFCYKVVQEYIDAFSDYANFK
UniProt P53801: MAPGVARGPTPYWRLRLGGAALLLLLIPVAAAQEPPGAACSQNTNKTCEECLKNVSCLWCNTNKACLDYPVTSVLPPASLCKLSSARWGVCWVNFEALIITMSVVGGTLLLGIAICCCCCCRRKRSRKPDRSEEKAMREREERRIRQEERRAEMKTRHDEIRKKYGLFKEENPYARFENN
UniProt P20962: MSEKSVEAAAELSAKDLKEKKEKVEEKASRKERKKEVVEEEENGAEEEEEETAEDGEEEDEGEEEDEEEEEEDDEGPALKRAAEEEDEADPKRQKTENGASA
UniProt P49721: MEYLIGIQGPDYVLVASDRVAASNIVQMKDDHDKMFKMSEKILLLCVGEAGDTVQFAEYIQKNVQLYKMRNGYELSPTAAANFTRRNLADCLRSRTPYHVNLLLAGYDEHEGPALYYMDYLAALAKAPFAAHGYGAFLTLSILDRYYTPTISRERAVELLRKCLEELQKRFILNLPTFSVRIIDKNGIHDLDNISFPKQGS
UniProt P32322: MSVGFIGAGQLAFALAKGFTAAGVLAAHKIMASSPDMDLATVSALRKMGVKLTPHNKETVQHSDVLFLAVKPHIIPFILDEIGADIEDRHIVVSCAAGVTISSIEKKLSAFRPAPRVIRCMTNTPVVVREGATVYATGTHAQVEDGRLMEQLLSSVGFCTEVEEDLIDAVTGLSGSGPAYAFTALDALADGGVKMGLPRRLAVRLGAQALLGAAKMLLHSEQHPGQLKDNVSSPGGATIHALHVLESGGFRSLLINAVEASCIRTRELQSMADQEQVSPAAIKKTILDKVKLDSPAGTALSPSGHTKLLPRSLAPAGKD
UniProt Q9Y606: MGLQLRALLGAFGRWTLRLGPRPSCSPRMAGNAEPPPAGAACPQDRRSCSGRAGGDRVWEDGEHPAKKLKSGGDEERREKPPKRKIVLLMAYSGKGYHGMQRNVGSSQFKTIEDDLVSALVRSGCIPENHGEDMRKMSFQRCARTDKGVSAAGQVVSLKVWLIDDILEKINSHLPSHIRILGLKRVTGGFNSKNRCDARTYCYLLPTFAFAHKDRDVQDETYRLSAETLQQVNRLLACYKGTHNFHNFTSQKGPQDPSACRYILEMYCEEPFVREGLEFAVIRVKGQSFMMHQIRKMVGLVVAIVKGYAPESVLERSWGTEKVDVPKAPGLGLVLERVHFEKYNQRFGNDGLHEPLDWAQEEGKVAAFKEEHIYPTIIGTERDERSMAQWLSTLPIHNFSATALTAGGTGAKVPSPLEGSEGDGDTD
UniProt Q9BRP8: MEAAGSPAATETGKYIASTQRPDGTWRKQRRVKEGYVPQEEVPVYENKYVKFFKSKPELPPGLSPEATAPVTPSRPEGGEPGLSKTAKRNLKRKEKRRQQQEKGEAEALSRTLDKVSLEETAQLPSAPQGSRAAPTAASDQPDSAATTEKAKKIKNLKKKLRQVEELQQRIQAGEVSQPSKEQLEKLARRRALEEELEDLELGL
UniProt Q08623: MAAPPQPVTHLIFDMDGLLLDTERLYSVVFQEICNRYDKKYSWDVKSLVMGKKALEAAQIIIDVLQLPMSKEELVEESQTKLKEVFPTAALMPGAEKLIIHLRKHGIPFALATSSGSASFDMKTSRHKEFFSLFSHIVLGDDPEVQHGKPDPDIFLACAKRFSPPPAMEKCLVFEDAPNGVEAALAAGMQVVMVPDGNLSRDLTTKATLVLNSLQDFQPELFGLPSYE

Tests used:
Assay in all cases: log2 fold change, soluble protein after heating vs DMSO (PISA); higher = thermal stabilisation; K562 cells, 10 uM, 30 min; active = over 0.2 and 3.5 SD of the protein, either way, in both replicates (recomputed)
bafetinib = compound: Cc1ccc(NC(=O)c2ccc(CN3CC[C@H](N(C)C)C3)c(C(F)(F)F)c2)cc1Nc1nccc(-c2cncnc2)n1 [bafetinib]
How it was run: (§1)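 Soluble protein was quantified by TMTpro 16plex LC-MS/MS after channel sums were equalised. It was obtained as the supernatant after 21,000xg for 90 min from pooled aliquots of K562 cells (2×10^6 cells/mL, 10 μM compound, 30 min) heated for 3 min across 48°C-58°C and extracted in PBS with 0.5% NP-40 at 4°C. Thermal stability values are relative to control samples and come from duplicates. They are given as log2 fold changes.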

[1] = compound: Cc1cccc(CC(=O)N2CCc3c2ccc(-c2cn(C)c4ncnc(N)c24)c3F)n1
How it was run: as §1

nilotinib = compound: Cc1cn(-c2cc(NC(=O)c3ccc(C)c(Nc4nccc(-c5cccnc5)n4)c3)cc(C(F)(F)F)c2)cn1 [nilotinib]
How it was run: as §1

[2] = compound: Cc1nc(Nc2n[nH]c3c2CN(C(=O)N[C@H](CN(C)C)c2ccccc2)C3(C)C)c2sccc2n1
How it was run: as §1

dasatinib = compound: Cc1nc(Nc2ncc(C(=O)Nc3c(C)cccc3Cl)s2)cc(N2CCN(CCO)CC2)n1 [dasatinib]
How it was run: as §1

[3] = compound: Cc1ncc(-c2ccnc(Nc3ccc(S(C)(=O)=O)cc3)n2)n1C(C)C
How it was run: as §1

[4] = compound: Cn1cc(-c2ccc3c(c2)CCN3C(=O)Cc2cccc(C(F)(F)F)c2)c2c(N)ncnc21
How it was run: as §1

[5] = compound: Cn1cc(-c2ccc3nnc(C(F)(F)c4ccc5ncccc5c4)n3n2)cn1
How it was run: as §1

tipifarnib = compound: Cn1cncc1[C@@](N)(c1ccc(Cl)cc1)c1ccc2c(c1)c(-c1cccc(Cl)c1)cc(=O)n2C [tipifarnib]
How it was run: as §1

mubritinib = compound: FC(F)(F)c1ccc(/C=C/c2nc(COc3ccc(CCCCn4ccnn4)cc3)co2)cc1 [mubritinib]
How it was run: as §1

Measured: log2 fold change

PSMA3 (UniProt P25788)
inactive: bafetinib 0.06 | [1] 0.003 | nilotinib 0.041 | [2] 0.041 | dasatinib 0.029 | [3] 0.008 | [4] -0.003 | [5] -0.005 | tipifarnib 0.006 | mubritinib -0.016

PYCR3 (UniProt Q53H96)
inactive: bafetinib 0.004 | [1] 0.011 | nilotinib 0.015 | [2] 0.019 | dasatinib -0.001 | [3] 0.002 | [4] 0.03 | [5] -0.033 | tipifarnib 0.013 | mubritinib 0

PSMG2 (UniProt Q969U7)
inactive: bafetinib -0.029 | [1] -0.004 | nilotinib 0.007 | [2] -0.006 | dasatinib 0.019 | [3] -0.019 | [4] 0.014 | [5] -0.005 | tipifarnib -0.012 | mubritinib 0.026

PSMC1 (UniProt P62191)
inactive: bafetinib 0.065 | [1] 0.02 | nilotinib -0.025 | [2] 0.062 | dasatinib 0.036 | [3] -0.014 | [4] -0.082 | [5] 0 | tipifarnib 0.087 | mubritinib -0.015

PURB (UniProt Q96QR8)
inactive: bafetinib 0.123 | [1] 0.079 | nilotinib 0.01 | [2] 0.135 | dasatinib 0.355 | [3] 0.01 | [4] -0.261 | [5] -0.141 | tipifarnib 0.221 | mubritinib -0.124

PTER (UniProt Q96BW5)
inactive: bafetinib -0.024 | [1] -0.055 | nilotinib -0.014 | [2] 0.016 | dasatinib -0.001 | [3] -0.01 | [4] 0.024 | [5] 0.074 | tipifarnib -0.013 | mubritinib 0.003

PSMC4 (UniProt P43686)
inactive: bafetinib 0.087 | [1] 0 | nilotinib -0.013 | [2] 0.05 | dasatinib 0.052 | [3] -0.019 | [4] -0.128 | [5] -0.037 | tipifarnib 0.117 | mubritinib -0.012

PSMG3 (UniProt Q9BT73)
inactive: bafetinib -0.075 | [1] -0.033 | nilotinib -0.007 | [2] 0.007 | dasatinib 0.031 | [3] 0.016 | [4] -0.01 | [5] 0.033 | tipifarnib 0.034 | mubritinib 0.046

PSMG4 isoform 2 (UniProt Q5JS54)
inactive: bafetinib -0.047 | [1] 0.161 | nilotinib 0.248 | [2] -0.189 | dasatinib 0.23 | [3] 0.137 | [4] -0.01 | [5] -0.012 | tipifarnib -0.24 | mubritinib 0.04

2 consecutive entries from above, quoted:
PURB (UniProt Q96QR8)
inactive: bafetinib 0.123 | [1] 0.079 | nilotinib 0.01 | [2] 0.135 | dasatinib 0.355 | [3] 0.01 | [4] -0.261 | [5] -0.141 | tipifarnib 0.221 | mubritinib -0.124

PTER (UniProt Q96BW5)
inactive: bafetinib -0.024 | [1] -0.055 | nilotinib -0.014 | [2] 0.016 | dasatinib -0.001 | [3] -0.01 | [4] 0.024 | [5] 0.074 | tipifarnib -0.013 | mubritinib 0.003

Next part:

PWP2 (UniProt Q15269)
inactive: bafetinib 0.12 | [1] 0.058 | nilotinib -0.03 | [2] -0.074 | dasatinib -0.062 | [3] 0.077 | [4] -0.137 | [5] -0.087 | tipifarnib 0.05 | mubritinib -0.059

PSME4 (UniProt Q14997)
inactive: bafetinib 0.069 | [1] 0.141 | nilotinib -0.057 | [2] 0.016 | dasatinib -0.084 | [3] -0.098 | [4] 0.015 | [5] -0.006 | tipifarnib -0.036 | mubritinib 0.052

PXMP2 (UniProt Q9NR77)
inactive: bafetinib -0.056 | [1] 0.022 | nilotinib -0.002 | [2] 0.024 | dasatinib 0.017 | [3] -0.027 | [4] 0.047 | [5] 0.001 | tipifarnib -0.021 | mubritinib 0.043

PSMC5 (UniProt P62195)
inactive: bafetinib 0.078 | [1] 0.035 | nilotinib -0.041 | [2] 0.035 | dasatinib 0.033 | [3] -0.014 | [4] -0.113 | [5] -0.006 | tipifarnib 0.09 | mubritinib -0.014

PSMA6 (UniProt P60900)
inactive: bafetinib 0.054 | [1] -0.013 | nilotinib 0.006 | [2] 0.09 | dasatinib 0.065 | [3] -0.009 | [4] -0.085 | [5] -0.03 | tipifarnib 0.021 | mubritinib -0.057

PTK2 (UniProt Q05397)
inactive: bafetinib -0.023 | [1] -0.004 | nilotinib 0.007 | [2] 0.081 | dasatinib -0.003 | [3] 0.026 | [4] 0.036 | [5] -0.016 | tipifarnib -0.027 | mubritinib 0.01

PYGO2 (UniProt Q9BRQ0)
inactive: bafetinib -0.033 | [1] -0.105 | nilotinib 0.046 | [2] -0.045 | [3] -0.057 | [5] 0.055 | tipifarnib -0.043 | mubritinib -0.01

PYCR2 (UniProt Q96C36)
inactive: bafetinib 0.005 | [1] 0.038 | nilotinib 0.007 | [2] 0.033 | dasatinib 0.043 | [3] -0.02 | [4] 0.03 | [5] 0.022 | tipifarnib -0.009 | mubritinib 0.045

QSOX1 (UniProt O00391)
inactive: bafetinib 0.045 | [1] -0.068 | nilotinib -0.164 | [2] -0.358 | dasatinib 0.021 | [3] 0.033 | [4] 0.046 | [5] -0.096 | mubritinib -0.01

PTAR1 (UniProt Q7Z6K3)
inactive: bafetinib -0.09 | [1] 0.037 | nilotinib 0.034 | [2] -0.012 | dasatinib 0.029 | [3] -0.048 | [4] 0.019 | [5] 0.09 | tipifarnib 0.092 | mubritinib 0

PTPRA (UniProt P18433)
inactive: bafetinib 0.064 | [1] -0.094 | nilotinib -0.003 | [2] -0.071 | dasatinib -0.075 | [3] 0.02 | [4] 0.025 | [5] -0.042 | tipifarnib -0.037 | mubritinib 0

PTTG1IP (UniProt P53801)
inactive: bafetinib -0.105 | [1] -0.053 | nilotinib -0.061 | [2] 0.054 | dasatinib -0.002 | [3] -0.099 | [4] 0.036 | tipifarnib 0.036 | mubritinib -0.012

PTMS (UniProt P20962)
inactive: bafetinib 0.015 | [1] -0.079 | nilotinib 0.041 | [2] -0.042 | dasatinib 0.034 | [3] 0.028 | [4] 0.103 | [5] -0.061 | tipifarnib 0.037 | mubritinib 0

PVR (UniProt P15151)
inactive: bafetinib 0.144 | [1] -0.078 | dasatinib 0.053 | [4] 0.044 | tipifarnib -0.13 | mubritinib 0.074

PSMB2 (UniProt P49721)
inactive: bafetinib 0.1 | [1] 0.01 | nilotinib 0.026 | [2] 0.058 | dasatinib 0.107 | [3] -0.034 | [4] 0.006 | [5] 0.037 | tipifarnib -0.001 | mubritinib -0.001

QRICH1 (UniProt Q2TAL8)
inactive: bafetinib 0.042 | nilotinib -0.093 | [2] -0.118 | dasatinib -0.206 | [3] 0.078 | [4] 0.043 | [5] 0.108 | tipifarnib -0.159 | mubritinib -0.01

PYCR1 isoform 3 (UniProt P32322)
inactive: bafetinib 0.105 | [1] 0.036 | nilotinib 0.009 | [2] 0.022 | [3] -0.028 | [4] 0.058 | [5] 0.049 | tipifarnib 0.014 | mubritinib 0.049

PUS1 (UniProt Q9Y606)
inactive: bafetinib -0.024 | [1] 0.076 | [4] 0.043 | [5] -0.049 | tipifarnib 0.064

PSMG1 (UniProt O95456)
inactive: bafetinib -0.049 | [1] 0.034 | nilotinib -0.016 | [2] 0.004 | dasatinib 0.054 | [3] -0.003 | [4] -0.016 | [5] 0.024 | tipifarnib 0.012 | mubritinib -0.006

PYCARD (UniProt Q9ULZ3)
inactive: bafetinib -0.01 | [1] 0.012 | nilotinib 0.009 | [2] -0.041 | dasatinib 0.009 | [3] -0.013 | [4] 0.043 | [5] 0.065 | tipifarnib -0.008 | mubritinib 0.132

PYM1 (UniProt Q9BRP8)
inactive: bafetinib 0.103 | [1] -0.05 | nilotinib 0.033 | [2] 0.101 | dasatinib 0.05 | [3] 0.004 | [4] -0.092 | [5] 0.014 | tipifarnib 0.058 | mubritinib -0.005

PUDP isoform 4 (UniProt Q08623)
inactive: bafetinib -0.069 | [1] -0.03 | nilotinib 0.028 | [2] 0.033 | dasatinib -0.05 | [3] 0.024 | [4] 0.058 | [5] 0.003 | tipifarnib -0.069 | mubritinib 0.015
